Measured values published in patent US20180362587A1, “Compositions and Methods for Inhibiting CBP80 Binding to PGC1 Family of Co-Activators” (University of Rochester, priority 2015, published 2018).
No constants are given. Whether binding was seen depends on the method and setting. For part of these data: In cells and extracts the contact can be indirect. Some binding calls cover weakened binding; strength is not graded here. Values belong to the binder of their own block, whether it stands above or below them.

The chains behind the UniProt entries cited, without tags or fusion partners. Where a name states a change or a piece, a line headed by the entry shows the natural chain unless it says otherwise.
UniProt Q86YN6: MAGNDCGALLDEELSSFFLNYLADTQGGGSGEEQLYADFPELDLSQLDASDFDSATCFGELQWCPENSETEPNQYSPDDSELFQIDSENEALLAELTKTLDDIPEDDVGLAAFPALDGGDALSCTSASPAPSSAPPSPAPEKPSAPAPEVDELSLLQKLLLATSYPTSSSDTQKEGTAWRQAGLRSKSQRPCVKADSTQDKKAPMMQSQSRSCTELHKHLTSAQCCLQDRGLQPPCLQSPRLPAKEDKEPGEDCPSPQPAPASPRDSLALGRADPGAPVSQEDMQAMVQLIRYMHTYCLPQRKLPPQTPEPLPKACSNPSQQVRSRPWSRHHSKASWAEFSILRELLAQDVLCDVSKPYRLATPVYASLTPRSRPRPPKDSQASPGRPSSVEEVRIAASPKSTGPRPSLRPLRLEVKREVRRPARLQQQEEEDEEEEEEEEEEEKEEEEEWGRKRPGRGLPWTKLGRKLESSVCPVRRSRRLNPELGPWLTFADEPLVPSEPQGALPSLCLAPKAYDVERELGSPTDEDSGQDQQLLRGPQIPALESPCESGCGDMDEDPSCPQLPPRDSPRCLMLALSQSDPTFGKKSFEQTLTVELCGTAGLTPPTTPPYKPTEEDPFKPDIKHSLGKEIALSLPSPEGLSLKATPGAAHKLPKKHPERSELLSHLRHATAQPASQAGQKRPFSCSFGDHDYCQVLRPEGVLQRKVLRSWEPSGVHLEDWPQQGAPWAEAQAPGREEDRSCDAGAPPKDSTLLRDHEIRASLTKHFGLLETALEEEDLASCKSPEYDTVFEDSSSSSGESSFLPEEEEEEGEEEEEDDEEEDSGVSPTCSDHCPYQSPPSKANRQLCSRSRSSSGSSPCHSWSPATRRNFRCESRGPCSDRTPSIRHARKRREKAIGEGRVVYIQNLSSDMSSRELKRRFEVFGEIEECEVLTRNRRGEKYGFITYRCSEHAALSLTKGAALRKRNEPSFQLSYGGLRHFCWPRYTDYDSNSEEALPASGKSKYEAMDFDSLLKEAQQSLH

Experiments:
[1] = target: T1, endogenous CBP80 of mouse C2C12 myoblasts (mouse) (UniProt Q3UYV9); assay: co-immunoprecipitation from C2C12 myoblast lysates, with or without formaldehyde crosslinking and RNase I
T1 sequence (looked up): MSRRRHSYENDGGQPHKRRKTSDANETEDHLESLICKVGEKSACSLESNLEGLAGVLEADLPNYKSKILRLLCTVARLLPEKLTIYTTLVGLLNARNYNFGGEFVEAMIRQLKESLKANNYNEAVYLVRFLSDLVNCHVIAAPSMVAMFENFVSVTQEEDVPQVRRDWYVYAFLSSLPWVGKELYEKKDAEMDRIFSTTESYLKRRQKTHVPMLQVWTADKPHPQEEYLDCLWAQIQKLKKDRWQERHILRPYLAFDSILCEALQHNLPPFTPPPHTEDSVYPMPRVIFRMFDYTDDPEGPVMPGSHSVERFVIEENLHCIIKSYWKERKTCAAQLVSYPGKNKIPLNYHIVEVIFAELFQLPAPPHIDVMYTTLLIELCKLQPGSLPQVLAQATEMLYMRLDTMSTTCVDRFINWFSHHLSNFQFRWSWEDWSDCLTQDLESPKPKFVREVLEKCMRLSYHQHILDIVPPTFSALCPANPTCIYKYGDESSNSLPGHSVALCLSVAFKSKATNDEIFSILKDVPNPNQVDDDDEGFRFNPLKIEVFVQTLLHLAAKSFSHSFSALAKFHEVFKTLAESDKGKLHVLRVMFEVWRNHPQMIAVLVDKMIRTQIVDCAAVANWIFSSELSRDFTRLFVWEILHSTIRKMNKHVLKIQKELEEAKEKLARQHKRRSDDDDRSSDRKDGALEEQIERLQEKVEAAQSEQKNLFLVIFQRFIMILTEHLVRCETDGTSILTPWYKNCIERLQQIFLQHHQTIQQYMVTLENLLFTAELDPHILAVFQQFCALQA

[2] = target: T1, endogenous CBP80 of mouse C2C12 myoblasts (mouse); assay: co-immunoprecipitation from C2C12 myoblast lysates, western blot
[3] = target: T2, CBP80/CBP20 complex (human, UniProt Q09161 20-790; P52298 1-156, limits assumed); assay: X-ray crystal structure of the PGC1β-CBP80-CBP20-cap complex
T2 construct: Used in the fluorescence polarization assays; In the crystal it also carried the cap analogue (m7GpppG / m7GpppA); also called CBC complex; CBC
T2 sequence (looked up) 1: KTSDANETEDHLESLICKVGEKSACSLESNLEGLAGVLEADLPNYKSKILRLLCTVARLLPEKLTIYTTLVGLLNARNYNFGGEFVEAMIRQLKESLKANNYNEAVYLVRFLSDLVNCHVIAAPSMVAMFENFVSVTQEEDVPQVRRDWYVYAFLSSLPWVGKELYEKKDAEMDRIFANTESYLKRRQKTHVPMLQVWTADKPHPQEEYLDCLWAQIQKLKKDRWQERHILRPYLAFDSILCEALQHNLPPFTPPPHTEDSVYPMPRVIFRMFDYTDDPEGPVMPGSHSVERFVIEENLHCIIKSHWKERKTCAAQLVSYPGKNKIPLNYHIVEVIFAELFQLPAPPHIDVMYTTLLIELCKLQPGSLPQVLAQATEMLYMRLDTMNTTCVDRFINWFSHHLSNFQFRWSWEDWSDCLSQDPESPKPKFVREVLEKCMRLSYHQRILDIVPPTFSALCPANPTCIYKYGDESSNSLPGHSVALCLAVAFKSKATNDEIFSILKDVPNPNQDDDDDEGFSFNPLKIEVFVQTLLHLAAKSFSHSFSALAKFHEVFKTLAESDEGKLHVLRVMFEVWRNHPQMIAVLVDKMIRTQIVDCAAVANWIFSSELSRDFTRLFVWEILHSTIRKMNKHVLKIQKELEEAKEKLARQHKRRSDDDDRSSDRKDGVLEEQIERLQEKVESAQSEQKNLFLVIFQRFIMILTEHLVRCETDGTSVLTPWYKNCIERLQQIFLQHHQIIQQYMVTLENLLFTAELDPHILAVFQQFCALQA
T2 sequence (looked up) 2: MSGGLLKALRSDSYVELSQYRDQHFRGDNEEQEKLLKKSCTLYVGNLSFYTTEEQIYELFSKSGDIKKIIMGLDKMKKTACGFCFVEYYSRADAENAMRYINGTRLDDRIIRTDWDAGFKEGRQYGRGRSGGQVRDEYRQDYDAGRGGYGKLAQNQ

binding [1]: binds | binding [2]: binds
B1: endogenous PGC1α of mouse C2C12 myoblasts (protein, UniProt O70343 1-797, looked up)
chain: MAWDMCSQDSVWSDIECAALVGEDQPLCPDLPELDLSELDVNDLDTDSFLGGLKWCSDQSEIISNQYNNEPANIFEKIDEENEANLLAVLTETLDSLPVDEDGLPSFDALTDGAVTTDNEASPSSMPDGTPPPQEAEEPSLLKKLLLAPANTQLSYNECSGLSTQNHAANHTHRIRTNPAIVKTENSWSNKAKSICQQQKPQRRPCSELLKYLTTNDDPPHTKPTENRNSSRDKCASKKKSHTQPQSQHAQAKPTTLSLPLTPESPNDPKGSPFENKTIERTLSVELSGTAGLTPPTTPPHKANQDNPFKASPKLKPSCKTVVPPPTKRARYSECSGTQGSHSTKKGPEQSELYAQLSKSSGLSRGHEERKTKRPSLRLFGDHDYCQSLNSKTDILINISQELQDSRQLDFKDASCDWQGHICSSTDSGQCYLRETLEASKQVSPCSTRKQLQDQEIRAELNKHFGHPCQAVFDDKSDKTSELRDGDFSNEQFSKLPVFINSGLAMDGLFDDSEDESDKLSYPWDGTQPYSLFDVSPSCSSFNSPCRDSVSPPKSLFSQRPQRMRSRSRSFSRHRSCSRSPYSRSRSRSPGSRSSSRSCYYYESSHYRHRTHRNSPLYVRSRSRSPYSRRPRYDSYEAYEHERLKRDEYRKEHEKRESERAKQRERQKQKAIEERRVIYVGKIRPDTTRTELRDRFEVFGEIEECTVNLRDDGDSYGFITYRYTCDAFAALENGYTLRRSNETDFELYFCGRKQFFKSNYADLDTNSDDFDPASTKSKYDSLDFDSLLKEAQRSLRR

binding [3]: binds
B2: PGC1β (synthetic peptide) residues 1009-1023 (peptide, UniProt Q86YN6 1009-1023, looked up)
peptide: MDFDSLLKEAQQSLH
